Source: PubChem BioAssay AID256 (DTP/NCI, 2004)
The list is a part of this screen's results and no random one: it gathers tests that were run many times, whatever their T/C, doses with no T/C, and many T/C values between a quarter and a half above the control. Other doses and runs of a compound stand elsewhere. T/C: endpoint of the treated group in % of that of the vehicle group. Some entries give survivors of the animals treated and no T/C: the source holds a T/C of zero for them, seemingly a mark for toxic or unscored doses. Some doses without a T/C left all or most animals alive at the check, yet need not have been tolerated: the source hardly ever lists a survival T/C far under the control, and the zero likely stands for such cases as well. Survivors were counted at the toxicity check, usually on the fifth day, unless a day is given; later deaths do not show. Schedules are NCI's codes, read here as Q, the interval in days (D) or hours (H), X, the number of doses. Some doses were run more than once; the results are listed from low to high. Some molecules as drawn cover several salts, stereoisomers or complexes of the source; a dose is that of the sample tested. Where survival is the endpoint, the PubChem record calls one and a half times the control and up active, and a quarter to a half above the control has no call in these data; cut-offs in other NCI protocols can differ. Some T/C values are followed by the survivors on the day toxicity was checked, most often the fifth; without a count, all were alive then. Counts like (3×) count equal records among those shown.

Tested on: CD2F1 mice, L1210 leukemia ip, survival T/C
Test: NCI In Vivo Anticancer Drug Screen. Data for tumor model L1210 Leukemia (intraperitoneal) in CD2F1 (CDF1) mice
Conditions: higher T/C = longer survival
How it was run: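 Transplantable tumor in mice; compound-treated vs vehicle-treated groups. Read-out = treated/control ratio of the measured endpoint.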

[1] = T/C endpoint: mean survival time, dose: 200.0 mg/kg/injection, schedule: Q01DX009 (ip), vehicle: saline with Tween-80
[2] = T/C endpoint: mean survival time, dose: 400.0 mg/kg/injection, schedule: Q01DX009 (ip), vehicle: saline with Tween-80
[3] = T/C endpoint: mean survival time, dose: 400.0 mg/kg/injection, schedule: Q04DX003 (ip), vehicle: saline with Tween-80
[4] = T/C endpoint: mean survival time, dose: 100.0 mg/kg/injection, schedule: Q04DX003 (ip), vehicle: saline with Tween-80
[5] = T/C endpoint: mean survival time, dose: 200.0 mg/kg/injection, schedule: Q04DX003 (ip), vehicle: saline with Tween-80
[6] = T/C endpoint: mean survival time, dose: 200.0 mg/kg/injection, schedule: Q04DX002 (ip), vehicle: saline with Tween-80
[7] = T/C endpoint: mean survival time, dose: 25.0 mg/kg/injection, schedule: Q01DX009 (ip), vehicle: other

**Q.** With COc1ccc(-c2[nH]c(=S)[nH]c(=O)c2CCO)cc1 as the compound, how does the survivor count [1] read?
**A.** The survivor count was 6 of 6.

**Q.** For O=C1CSC(=S)N1/N=C/c1cc2c(cc1[N+](=O)[O-])OCO2, which survivor count (T/C endpoint: mean survival time, dose: 150.0 mg/kg/injection, schedule: Q01DX001 (ip), vehicle: other) is on record?
**A.** Its survivor count is 2 of 6.

**Q.** How did the survivor count (T/C endpoint: mean survival time, dose: 400.0 mg/kg/injection, schedule: Q01DX009 (ip), vehicle: Klucel (hydroxypropylcellulose) (HPC)) turn out when CC1(OC(=O)c2ccccc2)CC(C)(C)[N+]([O-])=N1 (stereo not drawn) was run?
**A.** The survivor count was 4 of 6.

**Q.** What does the source list for CC[n+]1c(-c2ccccc2)c2cc(N)ccc2c2ccc(N)cc21?
**A.** T/C (T/C endpoint: mean survival time, dose: 2.5 mg/kg/injection, schedule: Q01DX009 (ip), vehicle: water): 97, 103, 106, 112 % of control; T/C (T/C endpoint: mean survival time, dose: 5.0 mg/kg/injection, schedule: Q01DX009 (ip), vehicle: water): 112, 114 (2×), 122 % of control; T/C (T/C endpoint: mean survival time, dose: 10.0 mg/kg/injection, schedule: Q01DX009 (ip), vehicle: water): 117, 118, 126, 127 % of control; T/C (T/C endpoint: mean survival time, dose: 20.0 mg/kg/injection, schedule: Q01DX005 (ip), vehicle: water): 138 % of control; T/C (T/C endpoint: mean survival time, dose: 20.0 mg/kg/injection, schedule: Q01DX009 (ip), vehicle: water): 117, 124, 125, 139 % of control [5 of 6 alive]; survivor count (T/C endpoint: mean survival time, dose: 32.0 mg/kg/injection, schedule: Q01DX009 (ip), vehicle: water): 6 of 6; survivor count (T/C endpoint: mean survival time, dose: 40.0 mg/kg/injection, schedule: Q01DX005 (ip), vehicle: water): 6 of 6; survivor count (T/C endpoint: mean survival time, dose: 40.0 mg/kg/injection, schedule: Q01DX009 (ip), vehicle: water): 4 of 6 and 5 of 6

**Q.** With O=c1[nH]cnc2[nH]ncc12 as the compound, how does the survivor count [2] read?
**A.** The survivor count was 1 of 6.

**Q.** And the survivor count (T/C endpoint: median survival time, dose: 400.0 mg/kg/injection, schedule: Q01DX009 (ip), vehicle: suspension in saline)?
**A.** The survivor count was 0 of 6.

**Q.** Which survivor count [2] does the source give for CC(C)C(=O)Nc1ccc(Cl)cc1 here?
**A.** Its survivor count is 2 of 6.

**Q.** How did the survivor count [3] turn out when O=Cc1cc(Cl)cc(Cl)c1O was run?
**A.** The survivor count was 5 of 6.

**Q.** Which survivor count [4] does the source give for CC1CCCN(CCSSCCN2CCCC(C)C2)C1 (stereo not drawn) here?
**A.** Its survivor count is 5 of 6.

**Q.** What about the survivor count [5] of the same compound?
**A.** The survivor count was 0 of 6.

**Q.** What about the survivor count [3] of the same compound?
**A.** Its survivor count is 0 of 6.

**Q.** How did the survivor count (T/C endpoint: mean survival time, dose: 400.0 mg/kg/injection, schedule: Q04DX003 (ip), vehicle: saline) turn out when CC(C(=O)O)C(C(=O)O)C(=O)O (stereo not drawn) was run?
**A.** Its survivor count is 2 of 6.

**Q.** For Nc1cc(S(=O)(=O)c2ccc(N3CCCCC3)c(N)c2)ccc1N1CCCCC1, which T/C [2] is on record?
**A.** The T/C was 133 % of control.

**Q.** COc1ccc(COc2ccc([N+](=O)[O-])cc2)cc1 was tested. Which survivor count [6] did it give?
**A.** Its survivor count is 3 of 3.

**Q.** Which survivor count (T/C endpoint: mean survival time, dose: 100.0 mg/kg/injection, schedule: Q01DX009 (ip), vehicle: saline with Tween-80) does the source give for C=CCn1c(NCCN(CC)CC)nc2cc([N+](=O)[O-])ccc2c1=O here?
**A.** Its survivor count is 0 of 6.

**Q.** What about the survivor count [1] of the same compound?
**A.** Its survivor count is 0 of 6.

**Q.** And the survivor count [2]?
**A.** The survivor count was 0 of 6.

**Q.** How did the survivor count (T/C endpoint: median survival time, dose: 100.0 mg/kg/injection, schedule: Q01DX005 (ip), vehicle: Klucel (hydroxypropylcellulose) (HPC)) turn out when CC1(C)OC2C(COC(=O)CI)OC(n3ccc(=O)[nH]c3=O)C2O1 (stereo not drawn) was run?
**A.** Its survivor count is 0 of 6.

**Q.** What about the survivor count (T/C endpoint: median survival time, dose: 200.0 mg/kg/injection, schedule: Q01DX005 (ip), vehicle: Klucel (hydroxypropylcellulose) (HPC)) of the same compound?
**A.** Its survivor count is 0 of 6.

**Q.** Which results are given for O=S(=O)(O)SCCN1CCCC1?
**A.** survivor count [4]: 5 of 6; survivor count [5]: 2 of 6; survivor count [3]: 0 of 6

**Q.** Which results are given for NC(=O)c1[nH]cnc1NN=NCCF?
**A.** survivor count (T/C endpoint: mean survival time, dose: 50.0 mg/kg/injection, schedule: Q01DX001 (ip), vehicle: Klucel (hydroxypropylcellulose) (HPC)): 0 of 6; survivor count (T/C endpoint: mean survival time, dose: 100.0 mg/kg/injection, schedule: Q01DX001 (ip), vehicle: Klucel (hydroxypropylcellulose) (HPC)): 0 of 6; survivor count (T/C endpoint: mean survival time, dose: 200.0 mg/kg/injection, schedule: Q01DX001 (ip), vehicle: Klucel (hydroxypropylcellulose) (HPC)): 0 of 6

**Q.** For CO[C@H]1C[C@](C)(O)Cc2cc3c(c(O)c21)C(=O)c1c(O)cc2c(c1C3=O)O[C@@H]1O[C@@]2(C)[C@H](O)[C@@H](N(C)C)[C@@H]1O, which T/C (T/C endpoint: mean survival time, dose: 1.56 mg/kg/injection, schedule: Q01DX009 (ip), vehicle: other, evaluated on day 30) is on record?
**A.** The T/C was 128, 133, 135 % of control.

**Q.** What about the T/C (T/C endpoint: mean survival time, dose: 1.56 mg/kg/injection, schedule: Q01DX009 (ip), vehicle: other, evaluated on day 60) of the same compound?
**A.** Its T/C is 114 % of control.

**Q.** And the T/C (T/C endpoint: mean survival time, dose: 3.12 mg/kg/injection, schedule: Q01DX009 (ip), vehicle: other)?
**A.** Its T/C is 135 % of control.

**Q.** And the T/C (T/C endpoint: mean survival time, dose: 3.13 mg/kg/injection, schedule: Q01DX009 (ip), vehicle: other)?
**A.** The T/C was 142 and 146 % of control.

**Q.** What about the T/C (T/C endpoint: mean survival time, dose: 6.25 mg/kg/injection, schedule: Q01DX009 (ip), vehicle: other, evaluated on day 30) of the same compound?
**A.** The T/C was 147, 160, 166, 183 % of control.

**Q.** What about the T/C (T/C endpoint: mean survival time, dose: 6.25 mg/kg/injection, schedule: Q01DX009 (ip), vehicle: other, evaluated on day 60) of the same compound?
**A.** Its T/C is 157 % of control.

**Q.** What about the T/C (T/C endpoint: mean survival time, dose: 12.5 mg/kg/injection, schedule: Q01DX009 (ip), vehicle: other, evaluated on day 30) of the same compound?
**A.** Its T/C is 177, 187, 212, 240 % of control.

**Q.** And the T/C (T/C endpoint: mean survival time, dose: 12.5 mg/kg/injection, schedule: Q01DX009 (ip), vehicle: other, evaluated on day 60)?
**A.** The T/C was 193 % of control.

**Q.** And the T/C (T/C endpoint: mean survival time, dose: 12.5 mg/kg/injection, schedule: Q01DX009 (oral), vehicle: saline)?
**A.** Its T/C is 140 % of control.

**Q.** And the T/C [7]?
**A.** Its T/C is 114 (2×), 115, 125 % of control.

**Q.** And the survivor count [7]?
**A.** Its survivor count is 6 of 6.

**Q.** How did the survivor count [4] turn out when CN1CCCN(C)C1c1ccc(Cl)cc1 was run?
**A.** Its survivor count is 0 of 6.

**Q.** What about the survivor count [5] of the same compound?
**A.** Its survivor count is 0 of 6.

**Q.** And the survivor count [3]?
**A.** The survivor count was 0 of 6.

**Q.** CCCCCCCCCCCCOCC[N+](C/C=C/c1ccccc1)(CCO)CCO was tested. Which survivor count [4] did it give?
**A.** Its survivor count is 0 of 6.

**Q.** And the survivor count [5]?
**A.** The survivor count was 0 of 6.

**Q.** And the survivor count [3]?
**A.** The survivor count was 0 of 6.

**Q.** How did the survivor count (T/C endpoint: mean survival time, dose: 80.0 mg/kg/injection, schedule: Q01DX001 (ip), vehicle: other) turn out when N#CCc1ccccc1-c1ccccc1CC#N was run?
**A.** Its survivor count is 3 of 6.

**Q.** Which survivor count (T/C endpoint: median survival time, dose: 17.5 mg/kg/injection, schedule: Q01DX005 (ip), vehicle: distilled water + Tween-80) does the source give for COC(=O)c1ncn(C2OC(COC(=O)c3ccccc3)C(OC(=O)c3ccccc3)C2OC(=O)c2ccccc2)c1C(=O)OC (stereo not drawn) here?
**A.** Its survivor count is 6 of 6.

**Q.** What about the survivor count (T/C endpoint: median survival time, dose: 70.0 mg/kg/injection, schedule: Q01DX005 (ip), vehicle: distilled water + Tween-80) of the same compound?
**A.** The survivor count was 5 of 6.

**Q.** CCCCCCCCCOc1ccc(Cl)cc1 was tested. Which survivor count [6] did it give?
**A.** Its survivor count is 3 of 3.
